According to PMC3946611, “hCLE/C14orf166 Associates with DDX1-HSPC117-FAM98B in a Novel Transcription-Dependent Shuttling RNA-Transporting Complex” (PLoS ONE, 2014):
Results are given in words; binding and its absence hold for the method and conditions named. In cells and extracts the contact can be indirect. Here binding means that the protein was enriched with, or labelled near, the bait; the list need not be complete. Tags and fused reporters may be left off the sequences shown.

Sequences of proteins named here, by UniProt entry; tags and fusion partners are left off. Residues count along the entry.
UniProt Q6NVV1: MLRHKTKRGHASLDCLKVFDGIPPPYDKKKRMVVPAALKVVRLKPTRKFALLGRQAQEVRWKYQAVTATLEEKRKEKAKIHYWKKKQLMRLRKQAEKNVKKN
UniProt Q8WXI9: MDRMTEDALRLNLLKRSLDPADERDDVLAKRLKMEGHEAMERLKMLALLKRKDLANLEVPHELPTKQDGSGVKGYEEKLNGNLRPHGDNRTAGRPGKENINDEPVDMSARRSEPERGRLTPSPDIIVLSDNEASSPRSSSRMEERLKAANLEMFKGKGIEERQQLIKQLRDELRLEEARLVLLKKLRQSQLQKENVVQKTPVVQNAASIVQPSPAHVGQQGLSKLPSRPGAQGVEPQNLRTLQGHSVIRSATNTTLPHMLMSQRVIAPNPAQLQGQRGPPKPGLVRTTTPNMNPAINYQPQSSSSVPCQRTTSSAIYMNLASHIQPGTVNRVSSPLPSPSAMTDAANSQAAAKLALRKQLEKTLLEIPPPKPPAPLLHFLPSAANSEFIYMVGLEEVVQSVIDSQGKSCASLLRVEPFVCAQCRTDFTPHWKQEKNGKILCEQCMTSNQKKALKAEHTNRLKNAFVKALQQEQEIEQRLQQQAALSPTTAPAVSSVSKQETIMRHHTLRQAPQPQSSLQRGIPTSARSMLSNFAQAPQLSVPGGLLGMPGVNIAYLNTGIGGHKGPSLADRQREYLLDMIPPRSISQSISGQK
UniProt P20648: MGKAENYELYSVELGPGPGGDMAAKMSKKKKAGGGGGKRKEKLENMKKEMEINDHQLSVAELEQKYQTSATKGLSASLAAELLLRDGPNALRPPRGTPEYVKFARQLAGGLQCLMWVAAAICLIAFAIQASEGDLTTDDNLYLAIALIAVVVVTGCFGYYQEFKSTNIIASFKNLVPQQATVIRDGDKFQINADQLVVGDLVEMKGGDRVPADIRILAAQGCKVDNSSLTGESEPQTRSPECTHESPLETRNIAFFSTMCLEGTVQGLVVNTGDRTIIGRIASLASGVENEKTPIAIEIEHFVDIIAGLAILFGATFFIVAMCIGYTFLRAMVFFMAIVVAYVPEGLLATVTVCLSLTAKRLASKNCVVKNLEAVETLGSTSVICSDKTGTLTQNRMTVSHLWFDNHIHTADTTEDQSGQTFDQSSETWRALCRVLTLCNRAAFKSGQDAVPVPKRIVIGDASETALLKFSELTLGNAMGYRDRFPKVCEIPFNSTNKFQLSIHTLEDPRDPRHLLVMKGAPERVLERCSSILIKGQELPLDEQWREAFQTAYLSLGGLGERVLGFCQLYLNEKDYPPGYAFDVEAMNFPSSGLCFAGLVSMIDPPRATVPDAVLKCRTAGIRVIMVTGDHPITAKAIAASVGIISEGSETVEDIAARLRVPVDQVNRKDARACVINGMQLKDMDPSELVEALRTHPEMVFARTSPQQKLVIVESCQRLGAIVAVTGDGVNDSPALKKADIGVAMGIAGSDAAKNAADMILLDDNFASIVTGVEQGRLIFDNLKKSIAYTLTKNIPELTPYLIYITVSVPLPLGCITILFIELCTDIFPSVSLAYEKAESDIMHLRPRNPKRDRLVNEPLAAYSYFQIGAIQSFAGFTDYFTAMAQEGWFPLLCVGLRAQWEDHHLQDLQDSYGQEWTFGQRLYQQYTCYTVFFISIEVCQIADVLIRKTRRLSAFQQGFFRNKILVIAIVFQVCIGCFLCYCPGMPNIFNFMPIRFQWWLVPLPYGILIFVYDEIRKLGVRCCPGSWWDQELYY
UniProt Q17RN3: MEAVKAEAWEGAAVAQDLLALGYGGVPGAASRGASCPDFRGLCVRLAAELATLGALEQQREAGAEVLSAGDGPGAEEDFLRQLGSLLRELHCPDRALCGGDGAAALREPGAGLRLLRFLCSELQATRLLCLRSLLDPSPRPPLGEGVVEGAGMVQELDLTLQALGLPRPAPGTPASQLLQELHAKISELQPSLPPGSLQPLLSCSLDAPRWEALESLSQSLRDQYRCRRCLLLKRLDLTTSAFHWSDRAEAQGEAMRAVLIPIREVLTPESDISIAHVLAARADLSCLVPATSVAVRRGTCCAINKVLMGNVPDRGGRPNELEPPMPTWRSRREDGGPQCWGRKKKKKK
UniProt P55081: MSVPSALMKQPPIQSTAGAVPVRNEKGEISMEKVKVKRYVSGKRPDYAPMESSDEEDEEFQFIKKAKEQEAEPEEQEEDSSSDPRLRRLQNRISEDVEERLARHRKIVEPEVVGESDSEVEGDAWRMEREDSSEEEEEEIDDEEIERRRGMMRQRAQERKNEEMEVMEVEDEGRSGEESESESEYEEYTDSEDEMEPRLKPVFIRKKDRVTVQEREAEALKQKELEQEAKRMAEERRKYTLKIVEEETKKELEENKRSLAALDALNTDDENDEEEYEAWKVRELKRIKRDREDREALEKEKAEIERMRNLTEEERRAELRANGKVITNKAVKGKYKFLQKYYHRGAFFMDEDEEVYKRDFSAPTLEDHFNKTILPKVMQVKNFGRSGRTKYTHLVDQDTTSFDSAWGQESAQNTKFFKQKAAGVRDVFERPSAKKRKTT
UniProt Q13443, residues 29-819: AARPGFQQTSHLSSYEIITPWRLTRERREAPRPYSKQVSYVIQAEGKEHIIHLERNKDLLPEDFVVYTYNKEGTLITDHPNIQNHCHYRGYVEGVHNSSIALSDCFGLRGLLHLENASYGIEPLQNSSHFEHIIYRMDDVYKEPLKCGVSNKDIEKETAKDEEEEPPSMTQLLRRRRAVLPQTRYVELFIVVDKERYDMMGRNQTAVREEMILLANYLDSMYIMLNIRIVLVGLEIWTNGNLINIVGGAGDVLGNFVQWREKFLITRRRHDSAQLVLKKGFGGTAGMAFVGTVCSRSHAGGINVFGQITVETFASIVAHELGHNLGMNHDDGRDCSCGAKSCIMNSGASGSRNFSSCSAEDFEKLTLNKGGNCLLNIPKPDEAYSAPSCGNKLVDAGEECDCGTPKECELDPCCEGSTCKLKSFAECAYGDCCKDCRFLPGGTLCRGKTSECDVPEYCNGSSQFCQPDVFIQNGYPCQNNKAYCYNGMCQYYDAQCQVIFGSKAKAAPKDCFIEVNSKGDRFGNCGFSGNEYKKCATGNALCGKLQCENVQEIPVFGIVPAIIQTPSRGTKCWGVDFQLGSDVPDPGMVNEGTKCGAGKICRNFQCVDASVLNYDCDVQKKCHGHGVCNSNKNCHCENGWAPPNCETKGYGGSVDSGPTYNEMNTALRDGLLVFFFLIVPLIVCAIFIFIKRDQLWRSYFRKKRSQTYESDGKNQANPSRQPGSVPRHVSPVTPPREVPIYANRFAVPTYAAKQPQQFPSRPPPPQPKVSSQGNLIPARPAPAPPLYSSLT
UniProt O75190: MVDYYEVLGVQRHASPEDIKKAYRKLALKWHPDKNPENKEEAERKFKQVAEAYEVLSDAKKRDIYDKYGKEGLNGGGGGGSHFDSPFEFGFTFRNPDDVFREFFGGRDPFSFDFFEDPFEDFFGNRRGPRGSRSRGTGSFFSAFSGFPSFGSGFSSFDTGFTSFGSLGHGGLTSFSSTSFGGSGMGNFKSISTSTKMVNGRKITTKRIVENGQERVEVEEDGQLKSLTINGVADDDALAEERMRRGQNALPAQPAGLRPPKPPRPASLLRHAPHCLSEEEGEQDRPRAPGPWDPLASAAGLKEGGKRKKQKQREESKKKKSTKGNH
UniProt Q9UDY2: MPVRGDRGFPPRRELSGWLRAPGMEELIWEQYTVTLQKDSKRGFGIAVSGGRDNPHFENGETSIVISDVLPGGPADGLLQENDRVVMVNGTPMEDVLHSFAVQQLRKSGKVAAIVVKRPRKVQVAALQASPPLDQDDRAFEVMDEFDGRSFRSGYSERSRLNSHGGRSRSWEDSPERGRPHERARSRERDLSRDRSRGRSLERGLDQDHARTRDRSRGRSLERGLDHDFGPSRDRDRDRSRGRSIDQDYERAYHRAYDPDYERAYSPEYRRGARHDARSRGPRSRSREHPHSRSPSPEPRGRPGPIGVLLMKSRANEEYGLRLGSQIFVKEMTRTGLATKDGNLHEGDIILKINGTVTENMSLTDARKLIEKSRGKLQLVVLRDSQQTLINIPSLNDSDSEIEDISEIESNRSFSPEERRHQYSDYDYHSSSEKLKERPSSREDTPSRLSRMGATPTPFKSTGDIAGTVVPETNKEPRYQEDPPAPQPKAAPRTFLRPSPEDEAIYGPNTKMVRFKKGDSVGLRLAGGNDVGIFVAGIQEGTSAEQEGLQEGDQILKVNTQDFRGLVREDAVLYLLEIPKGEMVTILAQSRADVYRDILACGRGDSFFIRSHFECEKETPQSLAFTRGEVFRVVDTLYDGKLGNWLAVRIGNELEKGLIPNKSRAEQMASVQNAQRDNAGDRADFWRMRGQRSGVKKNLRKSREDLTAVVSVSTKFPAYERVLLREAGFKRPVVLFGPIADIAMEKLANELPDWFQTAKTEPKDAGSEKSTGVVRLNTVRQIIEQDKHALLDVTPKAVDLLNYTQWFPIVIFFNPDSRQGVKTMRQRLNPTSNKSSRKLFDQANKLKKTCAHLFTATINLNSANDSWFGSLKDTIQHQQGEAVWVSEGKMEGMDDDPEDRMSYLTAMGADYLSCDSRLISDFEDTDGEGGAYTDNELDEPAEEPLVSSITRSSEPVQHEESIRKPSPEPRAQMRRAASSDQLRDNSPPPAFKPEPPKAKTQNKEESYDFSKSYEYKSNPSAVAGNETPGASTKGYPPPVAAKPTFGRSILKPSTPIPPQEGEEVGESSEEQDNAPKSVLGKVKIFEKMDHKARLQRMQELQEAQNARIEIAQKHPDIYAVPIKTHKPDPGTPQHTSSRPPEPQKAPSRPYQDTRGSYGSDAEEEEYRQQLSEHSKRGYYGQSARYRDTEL
UniProt Q14692: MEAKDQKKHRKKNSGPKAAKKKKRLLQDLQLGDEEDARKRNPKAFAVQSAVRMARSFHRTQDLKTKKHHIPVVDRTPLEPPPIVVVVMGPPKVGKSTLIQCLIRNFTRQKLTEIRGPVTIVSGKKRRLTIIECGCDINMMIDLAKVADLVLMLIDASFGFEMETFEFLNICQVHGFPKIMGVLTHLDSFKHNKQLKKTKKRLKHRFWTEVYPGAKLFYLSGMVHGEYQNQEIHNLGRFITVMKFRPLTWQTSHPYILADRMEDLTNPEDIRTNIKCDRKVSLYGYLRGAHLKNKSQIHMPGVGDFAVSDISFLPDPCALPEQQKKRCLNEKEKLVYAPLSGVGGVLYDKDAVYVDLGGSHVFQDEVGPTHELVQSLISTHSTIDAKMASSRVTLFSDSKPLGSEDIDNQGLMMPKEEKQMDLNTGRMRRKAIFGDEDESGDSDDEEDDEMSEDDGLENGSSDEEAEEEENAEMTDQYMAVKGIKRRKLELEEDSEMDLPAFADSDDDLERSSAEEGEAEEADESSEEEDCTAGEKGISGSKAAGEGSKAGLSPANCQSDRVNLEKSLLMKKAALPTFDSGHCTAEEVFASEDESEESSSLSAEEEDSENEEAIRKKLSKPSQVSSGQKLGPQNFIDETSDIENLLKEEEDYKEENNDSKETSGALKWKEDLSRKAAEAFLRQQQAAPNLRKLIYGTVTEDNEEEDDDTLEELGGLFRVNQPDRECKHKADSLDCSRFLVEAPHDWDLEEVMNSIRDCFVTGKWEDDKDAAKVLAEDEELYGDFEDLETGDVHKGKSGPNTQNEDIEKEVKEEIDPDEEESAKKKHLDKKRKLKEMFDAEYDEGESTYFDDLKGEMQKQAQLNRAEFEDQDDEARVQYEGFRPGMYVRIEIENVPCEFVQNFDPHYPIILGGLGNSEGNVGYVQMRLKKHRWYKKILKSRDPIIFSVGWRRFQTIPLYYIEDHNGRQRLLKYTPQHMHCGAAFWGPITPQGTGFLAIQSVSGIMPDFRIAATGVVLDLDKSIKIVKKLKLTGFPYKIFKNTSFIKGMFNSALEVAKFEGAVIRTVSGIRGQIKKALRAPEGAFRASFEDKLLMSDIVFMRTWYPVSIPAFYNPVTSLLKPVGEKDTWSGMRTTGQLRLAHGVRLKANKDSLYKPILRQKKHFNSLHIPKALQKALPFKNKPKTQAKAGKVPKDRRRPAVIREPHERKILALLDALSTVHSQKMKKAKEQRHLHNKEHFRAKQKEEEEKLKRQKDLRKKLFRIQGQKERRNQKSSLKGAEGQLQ

T1: hCLE-TAP tagged protein, purified as hCLE-CBD (human) (UniProt Q9Y224)
T1 sequence: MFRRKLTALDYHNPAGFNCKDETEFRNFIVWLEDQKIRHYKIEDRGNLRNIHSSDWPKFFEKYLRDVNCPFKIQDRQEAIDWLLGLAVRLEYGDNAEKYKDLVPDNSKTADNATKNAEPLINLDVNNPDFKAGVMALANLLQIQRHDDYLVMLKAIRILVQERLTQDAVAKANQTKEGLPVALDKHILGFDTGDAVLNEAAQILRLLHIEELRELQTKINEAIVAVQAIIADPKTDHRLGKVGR

B1: Lysozyme C (protein, UniProt P61626 19-148)
chain: KVFERCELARTLKRLGMDGYRGISLANWMCLAKWESGYNTRATNYNAGDRSTDYGIFQINSRYWCNDGKTPGAVNACHLSCSALLQDNIADAVACAKRVVRDPQGIRAWVAWRNRCQNRDVRQYVQGCGV
B2: Nucleus accumbens-associated protein 1 (protein, UniProt Q96RE7 1-527)
chain: MAQTLQMEIPNFGNSILECLNEQRLQGLYCDVSVVVKGHAFKAHRAVLAASSSYFRDLFNNSRSAVVELPAAVQPQSFQQILSFCYTGRLSMNVGDQFLLMYTAGFLQIQEIMEKGTEFFLKVSSPSCDSQGLHAEEAPSSEPQSPVAQTSGWPACSTPLPLVSRVKTEQQESDSVQCMPVAKRLWDSGQKEAGGGGNGSRKMAKFSTPDLAANRPHQPPPPQQAPVVAAAQPAVAAGAGQPAGGVAAAGGVVSGPSTSERTSPGTSSAYTSDSPGSYHNEEDEEEDGGEEGMDEQYRQICNMYTMYSMMNVGQTAEKVEALPEQVAPESRNRIRVRQDLASLPAELINQIGNRCHPKLYDEGDPSEKLELVTGTNVYITRAQLMNCHVSAGTRHKVLLRRLLASFFDRNTLANSCGTGIRSSTNDPRRKPLDSRVLHAVKYYCQNFAPNFKESEMNAIAADMCTNARRVVRKSWMPKVKVLKAEDDAYTTFISETGKIEPDMMGVEHGFETASHEGEAGPSAEALQ
B3: Coiled-coil alpha-helical rod protein 1 (protein, UniProt Q8TD31 1-782)
chain: MFPPSGSTGLIPPSHFQARPLSTLPRMAPTWLSDIPLVQPPGHQDVSERRLDTQRPQVTMWERDVSSDRQEPGRRGRSWGLEGSQALSQQAEVIVRQLQELRRLEEEVRLLRETSLQQKMRLEAQAMELEALARAEKAGRAEAEGLRAALAGAEVVRKNLEEGSQRELEEVQRLHQEQLSSLTQAHEEALSSLTSKAEGLEKSLSSLETRRAGEAKELAEAQREAELLRKQLSKTQEDLEAQVTLVENLRKYVGEQVPSEVHSQTWELERQKLLETMQHLQEDRDSLHATAELLQVRVQSLTHILALQEEELTRKVQPSDSLEPEFTRKCQSLLNRWREKVFALMVQLKAQELEHSDSVKQLKGQVASLQEKVTSQSQEQAILQRSLQDKAAEVEVERMGAKGLQLELSRAQEARRRWQQQTASAEEQLRLVVNAVSSSQIWLETTMAKVEGAAAQLPSLNNRLSYAVRKVHTIRGLIARKLALAQLRQESCPLPPPVTDVSLELQQLREERNRLDAELQLSARLIQQEVGRAREQGEAERQQLSKVAQQLEQELQQTQESLASLGLQLEVARQGQQESTEEAASLRQELTQQQELYGQALQEKVAEVETRLREQLSDTERRLNEARREHAKAVVSLRQIQRRAAQEKERSQELRRLQEEARKEEGQRLARRLQELERDKNLMLATLQQEGLLSRYKQQRLLTVLPSLLDKKKSVVSSPRPPECSASAPVAAAVPTRESIKGSLSVLLDDLQDLSEAISKEEAVCQGDNLDRCSSSNPQMSS
B4: Small proline-rich protein 3 (protein, UniProt Q9UBC9 1-169)
chain: MSSYQQKQTFTPPPQLQQQQVKQPSQPPPQEIFVPTTKEPCHSKVPQPGNTKIPEPGCTKVPEPGCTKVPEPGCTKVPEPGCTKVPEPGCTKVPEPGCTKVPEPGYTKVPEPGSIKVPDQGFIKFPEPGAIKVPEQGYTKVPVPGYTKLPEPCPSTVTPGPAQQKTKQK
B5: U4/U6 small nuclear ribonucleoprotein Prp4 (protein, UniProt O43172 1-522)
chain: MASSRASSTQATKTKAPDDLVAPVVKKPHIYYGSLEEKERERLAKGESGILGKDGLKAGIEAGNINITSGEVFEIEEHISERQAEVLAEFERRKRARQINVSTDDSEVKACLRALGEPITLFGEGPAERRERLRNILSVVGTDALKKTKKDDEKSKKSKEEYQQTWYHEGPNSLKVARLWIANYSLPRAMKRLEEARLHKEIPETTRTSQMQELHKSLRSLNNFCSQIGDDRPISYCHFSPNSKMLATACWSGLCKLWSVPDCNLLHTLRGHNTNVGAIVFHPKSTVSLDPKDVNLASCAADGSVKLWSLDSDEPVADIEGHTVRVARVMWHPSGRFLGTTCYDRSWRLWDLEAQEEILHQEGHSMGVYDIAFHQDGSLAGTGGLDAFGRVWDLRTGRCIMFLEGHLKEIYGINFSPNGYHIATGSGDNTCKVWDLRQRRCVYTIPAHQNLVTGVKFEPIHGNFLLTGAYDNTAKIWTHPGWSPLKTLAGHEGKVMGLDISSDGQLIATCSYDRTFKLWMAE
B6: Pre-mRNA 3∼-end-processing factor FIP1 (protein, UniProt Q6UN15 1-594)
chain: MSAGEVERLVSELSGGTGGDEEEEWLYGGPWDVHVHSDLAKDLDENEVERPEEENASANPPSGIEDETAENGVPKPKVTETEDDSDSDSDDDEDDVHVTIGDIKTGAPQYGSYGTAPVNLNIKTGGRVYGTTGTKVKGVDLDAPGSINGVPLLEVDLDSFEDKPWRKPGADLSDYFNYGFNEDTWKAYCEKQKRIRMGLEVIPVTSTTNKITAEDCTMEVTPGAEIQDGRFNLFKVQQGRTGNSEKETALPSTKAEFTSPPSLFKTGLPPSRNSTSSQSQTSTASRKANSSVGKWQDRYGRAESPDLRRLPGAIDVIGQTITISRVEGRRRANENSNIQVLSERSATEVDNNFSKPPPFFPPGAPPTHLPPPPFLPPPPTVSTAPPLIPPPGFPPPPGAPPPSLIPTIESGHSSGYDSRSARAFPYGNVAFPHLPGSAPSWPSLVDTSKQWDYYARREKDRDRERDRDRERDRDRDRERERTRERERERDHSPTPSVFNSDEERYRYREYAERGYERHRASREKEERHRERRHREKEETRHKSSRSNSRRRHESEEGDSHRRHKHKKSKRSKEGKEAGSEPAPEQESTEATPAE
B7: AT-rich interactive domain-containing protein 3A (ARI3A) (protein, UniProt Q99856 1-593)
chain: MKLQAVMETLLQRQQRARQELEARQQLPPDPPAAPPGRARAAPDEDREPESARMQRAQMAALAAMRAAAAGLGHPASPGGSEDGPPGSEEEDAAREGTPGSPGRGREGPGEEHFEDMASDEDMKPKWEEEEMEEDLGEDEEEEEEDYEDEEEEEDEEGLGPPGPASLGTTALFPRKAQPPQAFRGDGVPRVLGGQERPGPGPAHPGGAAHVAPQLQPPDHGDWTYEEQFKQLYELDGDPKRKEFLDDLFSFMQKRGTPVNRIPIMAKQVLDLFMLYVLVTEKGGLVEVINKKLWREITKGLNLPTSITSAAFTLRTQYMKYLYPYECEKRGLSNPNELQAAIDSNRREGRRQSFGGSLFAYSPGGAHGMLSSPKLPVSSLGLAASTNGSSITPAPKIKKEEDSAIPITVPGRLPVSLAGHPVVAAQAAAVQAAAAQAAVAAQAAALEQLREKLESAEPPEKKMALVADEQQRLMQRALQQNFLAMAAQLPMSIRINSQASESRQDSAVNLTGTNGSNSISMSVEINGIMYTGVLFAQPPAPTPTSAPNKGGGGGGGSSSNAGGRGGNTGTSGGQAGPAGLSTPSTSTSNNSLP
B8: Protein salvador homolog 1 (protein, UniProt Q9H4B6 1-383)
chain: MLSRKKTKNEVSKPAEVQGKYVKKETSPLLRNLMPSFIRHGPTIPRRTDICLPDSSPNAFSTSGDVVSRNQSFLRTPIQRTPHEIMRRESNRLSAPSYLARSLADVPREYGSSQSFVTEVSFAVENGDSGSRYYYSDNFFDGQRKRPLGDRAHEDYRYYEYNHDLFQRMPQNQGRHASGIGRVAATSLGNLTNHGSEDLPLPPGWSVDWTMRGRKYYIDHNTNTTHWSHPLEREGLPPGWERVESSEFGTYYVDHTNKKAQYRHPCAPSVPRYDQPPPVTYQPQQTERNQSLLVPANPYHTAEIPDWLQVYARAPVKYDHILKWELFQLADLDTYQGMLKLLFMKELEQIVKMYEAYRQALLTELENRKQRQQWYAQQHGKNF
B9: Single-stranded DNA-binding protein 3 (protein, UniProt Q9BWW4 1-388)
chain: MFAKGKGSAVPSDGQAREKLALYVYEYLLHVGAQKSAQTFLSEIRWEKNITLGEPPGFLHSWWCVFWDLYCAAPERRDTCEHSSEAKAFHDYSAAAAPSPVLGNIPPNDGMPGGPIPPGFFQGPPGSQPSPHAQPPPHNPSSMMGPHSQPFMSPRYAGGPRPPIRMGNQPPGGVPGTQPLLPNSMDPTRQQGHPNMGGSMQRMNPPRGMGPMGPGPQNYGSGMRPPPNSLGPAMPGINMGPGAGRPWPNPNSANSIPYSSSSPGTYVGPPGGGGPPGTPIMPSPADSTNSSDNIYTMINPVPPGGSRSNFPMGPGSDGPMGGMGGMEPHHMNGSLGSGDIDGLPKNSPNNISGISNPPGTPRDDGELGGNFLHSFQNDNYSPSMTMSV
B10: F-box-like/WD repeat-containing protein (protein, UniProt Q9BQ87 1-522)
chain: MSITSDEVNFLVYRYLQESGFSHSAFTFGIESHISQSNINGTLVPPSALISILQKGLQYVEAEISINKDGTVFDSRPIESLSLIVAVIPDVVQMRQQAFGEKLTQQQASAAATEASAMAKAATMTPAAISQQNPPKNREATVNGEENGAHEINNHSKPMEIDGDVEIPPNKATVLRGHESEVFICAWNPVSDLLASGSGDSTARIWNLNENSNGGSTQLVLRHCIREGGHDVPSNKDVTSLDWNSDGTLLAMGSYDGFARIWTENGNLASTLGQHKGPIFALKWNKKGNYVLSAGVDKTTIIWDAHTGEAKQQFPFHSAPALDVDWQNNMTFASCSTDMCIHVCRLGCDHPVKTFQGHTNEVNAIKWDPSGMLLASCSDDMTLKIWSMKQDACVHDLQAHSKEIYTIKWSPTGPATSNPNSSIMLASASFDSTVRLWDVEQGVCTHTLMKHQEPVYSVAFSPDGKYLASGSFDKYVHIWNTQSGSLVHSYQGTGGIFEVCWNARGDKVGASASDGSVCVLDL

Target: T1, hCLE-TAP tagged protein, purified as hCLE-CBD (human)
Test: affinity purification with mass spectrometry; TAP purification of hCLE-TAP from nuclear extracts of transfected HEK293T cells (150 mM NaCl, 10 mM Tris-HCl pH 8.0, 0.1% NP-40); LC-MS/MS; TAP alone as control

binding	Molecule
binds	B1
binds	B2
binds	B3
binds	B4
binds	B5
binds	B6
binds	B7
binds	B8
binds	B9
binds	B10

Target: T1, hCLE-TAP tagged protein, purified as hCLE-CBD (human)
Test: affinity purification with mass spectrometry; TAP purification of hCLE-TAP from cytosolic extracts of transfected HEK293T cells (150 mM NaCl); LC-MS/MS; TAP alone as control

binding	Molecule
binds	Putative 60S ribosomal protein L13a-like MGC87657 (from UniProt Q6NVV1 1-102)
binds	Transcriptional repressor p66-beta (from UniProt Q8WXI9 1-593)
binds	Potassium-transporting ATPase alpha chain 1 (from UniProt P20648 1-1035)
binds	Protein FAM98C (from UniProt Q17RN3 1-349)
binds	Microfibrillar-associated protein 1 (from UniProt P55081 1-439)
binds	Disintegrin and metalloproteinase domain-containing prot. 9 (from UniProt Q13443 29-819)
binds	DnaJ homolog subfamily B member 6 (from UniProt O75190 1-326)
binds	Tight junction protein ZO-2 (from UniProt Q9UDY2 1-1190)
binds	Ribosome biogenesis protein BMS1 homolog (from UniProt Q14692 1-1282)
